No constants are given. Whether binding was seen depends on the method and setting. Binding can be weak; no strength is given.
Target: SAUR32 (tomato), fusion from pGBKT7 for yeast two-hybrid (tomato (Solanum lycopersicum L., cv. Tianfei 9)) (UniProt I3RSI1)
Assay: two-hybrid; yeast AH109 co-transformed with PP2C72-pGADT7 and pGBKT7-SAUR32; 30°C, 3 days; growth and blue colour on SD-Trp-Leu-His-Ade with x-α-gal (methods: SD-Leu-Trp-His)

PP2C72 (tomato), fusion from pGADT7 for yeast two-hybrid (from UniProt A0A3Q7HQJ8) (enzyme)
binding: binds
